# From PubChem BioAssay AID2685 (National Center for Advancing Translational Sciences (NCATS), 2010)
# This is one part of the list. These are further read-outs of the screen, such as a control signal, another cell line or another target. No call is given for them. Compounds called inactive in the main read-out are mostly missing here. Words in brackets tell the shape of the fitted curve; partial curves, single points and poor fits give uncertain potencies.
# Test: qHTS Assay for Lipid Storage Modulators in Drosophila S3 Cells;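 on cell number change: cells counted by Cell Tracker Red CMTPX staining in the red channel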
# Details: BODIPY lipid droplet fluorescence, 18-24 h; for cell number change: measured here: cell count max response, cells fed with added oleic acid
# Procedure, shortened: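 Laser-scanning cytometry quantifies lipid droplet accumulation (500–530 nm total intensity; droplet/cell object ratio) in oleic acid-fed (400 uM added) Drosophila S3 cells treated with a concentration series. 20 uM Triacsin C defined 100% inhibition.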
# [1] = measured here: lipid fluorescence (Fed channel) AC50, cells fed with added oleic acid
# [2] = measured here: cell number channel AC50, cells fed with added oleic acid
smiles,measurement,setting,value
COc1ccc(-n2cnnc2SCc2csc(-c3ccccc3)n2)cc1,cell number change,,-14.5%
same,AC50,[1],"0.651 µM [rising, full curve, poor fit]"
COc1cc2nc(/C=C/c3cc(OC)c(OC)c(OC)c3)sc2cc1SC,cell number change,,-20.6%
CSCC[C@H](N)C(=O)NCC1CCC(C(=O)Nc2ccc3c(c2)OCO3)CC1 (some centres not stated),AC50,[1],"29.1 µM [rising, single point]"
COC(=O)c1cccc(NC(=O)CCSc2ccc(Cl)cc2)c1C,cell number change,,-1.99%
same,AC50,[1],"2.91 µM [falling, single point]"
COc1ccc(NC(=O)NC2(C(=O)N3CCN(C)CC3)CCCCC2)cc1,cell number change,,-5.13%
Cc1ccc(S(=O)(=O)C2(C(=O)NCc3ccccc3Cl)CC2)cc1,cell number change,,-22.7%
same,AC50,[1],"2.31 µM [falling, full curve]"
O=[N+]([O-])c1cccc(S(=O)(=O)N2CCN(S(=O)(=O)N3CCOCC3)CC2)c1,cell number change,,15%
same,AC50,[1],"3.66 µM [rising, full curve]"
COCCNC(=O)c1ccccc1N(Cc1ccccc1)S(=O)(=O)c1ccc(C)cc1,cell number change,,5.63%
CSc1nc(SCC(N)=O)c2c3c(sc2n1)CN(C)CC3,cell number change,,-6.9%
same,AC50,[1],"0.411 µM [rising, partial curve, poor fit]"
CN1C(=O)N(CC(=O)N2CCN(S(=O)(=O)Cc3ccccc3)CC2)C(=O)C12CCCCC2,cell number change,,-5.77%
same,AC50,[1],"29.1 µM [rising, single point]"
CCn1c(=S)[nH]c2cc(Cl)ccc21,cell number change,,32.5%
same,AC50,[2],"4.11 µM [rising, partial curve]"
COc1ccccc1-n1c(CNC(=O)c2ccco2)nnc1SCC(=O)Nc1nccs1,AC50,[1],"0.0731 µM [rising, full curve, poor fit]"
Cc1cccc(C)c1NS(=O)(=O)c1ccc(F)cc1,AC50,[1],"0.731 µM [falling, full curve, poor fit]"
CCCn1c(SCc2ccc(C(=O)OC)o2)nc2ccccc2c1=O,AC50,[1],"6.51 µM [rising, single point]"
CC(OC(=O)c1cccc(-n2cnnn2)c1)C(=O)Nc1ccccc1F (configuration not stated),AC50,[2],"6.51 µM [rising, single point]"
CCc1ccc(N(C(=O)CNC(=O)c2ccco2)C(C(=O)NC2CCCC2)c2ccncc2)cc1 (configuration not stated),cell number change,,-2.5%
COc1ccc(C2CC(c3ccc([N+](=O)[O-])cc3)=NN2C(C)=O)cc1 (configuration not stated),cell number change,,0.971%
CCN(C(=O)c1cccc(Br)c1)c1ccccc1,cell number change,,-42.5%
same,AC50,[2],"10.3 µM [falling, partial curve]"
same,AC50,[1],"9.2 µM [falling, partial curve]"
O=C(CSc1nnc(NC(=O)CN2CCOCC2)s1)Nc1ccccc1,cell number change,,-15.3%
same,AC50,[2],"6.51 µM [falling, single point]"
COC(=O)c1ccccc1NC(=O)CN(c1c(C)cccc1C)S(C)(=O)=O,cell number change,,9.8%
same,AC50,[1],"29.1 µM [falling, single point]"
Cc1cc(C)n2nc(C(=O)OCC(=O)c3cc(C)n(C)c3C)nc2n1,cell number change,,92%
same,AC50,[2],"23.1 µM [rising, single point]"
same,AC50,[1],"2.59 µM [rising, single point]"
CCOc1cc(CNCCSc2nnnn2C)cc(Br)c1OCc1ccccc1,cell number change,,-32.3%
same,AC50,[1],"2.06 µM [rising, partial curve]"
CC(C)Cn1c(=O)c2ccccc2n2c(CCC(=O)NCC3CCCO3)nnc12 (configuration not stated),cell number change,,-8.06%
same,AC50,[1],"2.06 µM [falling, partial curve]"
COCCCn1c(SCC(=O)Nc2ccc(C(=O)OC)cc2)nc2ccccc2c1=O,cell number change,,-55.7%
same,AC50,[2],"29.1 µM [falling, single point]"
same,AC50,[1],"29.1 µM [falling, partial curve]"
COC(=O)c1ccc(Cn2cnc3ccccc3c2=O)cc1,cell number change,,31.3%
same,AC50,[2],"0.461 µM [rising, full curve, poor fit]"
same,AC50,[1],"0.82 µM [rising, partial curve]"
Cc1cc(C)nc(/N=C(\N)Nc2ccc(CC(=O)OC(C)C)cc2)n1,cell number change,,-11.1%
same,AC50,[1],"20.6 µM [falling, partial curve]"
O=C(Cn1cc([N+](=O)[O-])cn1)N1CCN(Cc2ccc3c(c2)OCO3)CC1,cell number change,,-31.4%
same,AC50,[2],"0.231 µM [falling, full curve, poor fit]"
Cc1cc(C)nc(-n2nc(C)c(C3(O)C(=O)Nc4ccc(F)cc43)c2N)n1 (configuration not stated),cell number change,,-4.19%
same,AC50,[1],"0.731 µM [falling, single point]"
Cc1ccc(NC(=O)c2cc(S(=O)(=O)NCCc3ccccc3)ccc2F)cc1Cl,cell number change,,-22.4%
same,AC50,[1],"29.1 µM [falling, single point]"
CCOC(=O)Cc1csc(NC(=O)Nc2cccc(Cl)c2)n1,cell number change,,37.3%
same,AC50,[2],"11.6 µM [rising, partial curve, poor fit]"
same,AC50,[1],"16.4 µM [rising, partial curve]"
O=C(NNC(=S)NCc1ccccc1)c1cccc([N+](=O)[O-])c1,cell number change,,-39.4%
same,AC50,[2],"16.4 µM [falling, partial curve]"
same,AC50,[1],"7.31 µM [falling, single point]"
Cc1cc(C(=O)NCc2ccccc2Br)no1,cell number change,,1.12%
CCOC(=O)C1CCN(C(=O)COC(=O)CSc2ccc(C(N)=O)cc2[N+](=O)[O-])CC1,cell number change,,-11%
same,AC50,[1],"0.82 µM [rising, single point]"
COc1ccc2c3n(nc2c1)CCN=C3c1ccc(C)cc1,cell number change,,5.55%
same,AC50,[1],"29.1 µM [rising, single point]"
N/C(=N\OS(=O)(=O)c1ccccc1)c1cccnc1,cell number change,,96.8%
same,AC50,[2],"18.4 µM [rising, single point]"
same,AC50,[1],"4.11 µM [rising, full curve]"
CCn1nnnc1SCC(=O)N1CCCCC1,cell number change,,-23.7%
CCOC(=O)C1=C(C)Nc2ccccc2N=C1NC(=O)c1ccc(Cl)c(S(=O)(=O)N2CCCC2)c1,cell number change,,-20.2%
same,AC50,[2],"0.082 µM [falling, partial curve, poor fit]"
same,AC50,[1],"0.0731 µM [falling, partial curve, poor fit]"
O=C(CSc1nnc(-c2ccncc2)o1)N1CCc2ccccc2C1,AC50,[2],"6.51 µM [rising, single point]"
O=S(=O)(c1ccccc1)N1CCn2c(nc3ccccc32)C1,cell number change,,6.15%

# An excerpt of these results, as tab-separated lines:
smiles	measurement	setting	value
Cc1cc(C)nc(-n2nc(C)c(C3(O)C(=O)Nc4ccc(F)cc43)c2N)n1 (configuration not stated)	cell number change		-4.19%
same	AC50	[1]	0.731 µM [falling, single point]
Cc1ccc(NC(=O)c2cc(S(=O)(=O)NCCc3ccccc3)ccc2F)cc1Cl	cell number change		-22.4%
same	AC50	[1]	29.1 µM [falling, single point]
